Experimental data published in patent US5451564A, “Antimicrobial composition comprising N-hydroxy heterocyclic thiones” (priority 1991, dated 1995).
This continues a long series; more values of the same kind are listed elsewhere.

Test system: mixed suspension of Pseudomonas aeruginosa, Proteus rettgeri, Serratia marcescans, Aeromonas hydrophila, Alcaligenes species, Pseudomonas cepacia and …
Experiment: repeated bacterial challenge test in acrylic (emulsion) paint
Format: cell-based, mixed bacteria
Parameters: key: 5: Confluent growth; 4: Heavy growth; 3: Moderate growth; 2: Slight growth; 1: Trace growth; 0: No growth
Procedure: An inoculum was prepared containing Pseudomonas aeruginosa, Proteus rettgeri, Serratia marcescans, Aeromonas hydrophila, Alcaligenes species, Pseudomonas cepacia and Pseudomonas putida by culturing the individual organisms onto nutrient agar and incubating for 24 hours at 30° C. Each of the individual suspensions of the test organisms were then prepared at a concentration of 10E8 cfu/ml in one quarter strength Ringer's solution by means of a Thoma counting chamber. A mixed suspension was obtained by mixing equal volumes of the individual suspensions. This procedure was repeated for each of the three challenges to which the test substrates were subjected, and the concentration of micro-organisms in each substrate after challenge was 2×10E6 cfu/ml.
Aliquots (50 parts) of a standard laboratory acrylic latex and an emulsion paint were prepared containing 0, 10, 25, 50, 100, 125, 250, 500 and 750 ppm of the 1:2 zinc complex of 3-hydroxy-4-methylthiazol-2(3H)thione which was prepared as a 1% dispersion in an aqueous solution of 0.1M tetrasodium pyrophosphate. A 1% dispersion of the 1:2 zinc complex of 1-hydroxy-2-pyridinethiol in an aqueous solution of 0.1M tetrasodiumpyrophosphate was evaluated in the same manner.
The test substrates were then stored at 40° C. for seven days and were then challenged on three separate occasions with 1 part by volume of the mixed suspension of micro-organisms. All the substrates were then incubated at 30° C. and examined for the presence of viable bacteria after 1, 3 and 7 days after each challenge (Phase 1).
Those samples which had achieved sterility were then stored for a further 8 weeks at 30° C., and were then rechallenged and the number of viable organisms again determined (Phase 2).
Viable bacteria were detected by streaking small aliquots onto nutrient agar followed by incubation at 30° C. for 2 days. The presence or absence of colonies was determined visually. […]

Structure (SMILES): Cc1csc(=S)n1[O-].Cc1csc(=S)n1[O-].[Zn+2] [Compound A, 1:2 zinc complex of 3-hydroxy-4-methylthiazol-2(3H)thione]
- growth rating (paint 100 ppm, Phase 1 Chall 1, day 3): 2
- growth rating (paint 100 ppm, Phase 1 Chall 1, day 7): 0
- growth rating (paint 100 ppm, Phase 1 Chall 2, day 1): 5
- growth rating (paint 100 ppm, Phase 1 Chall 2, day 3): 4
- growth rating (paint 100 ppm, Phase 1 Chall 2, day 7): 0
- growth rating (paint 100 ppm, Phase 1 Chall 3, day 1): 5
- growth rating (paint 100 ppm, Phase 1 Chall 3, day 3): 4
- growth rating (paint 100 ppm, Phase 1 Chall 3, day 7): 0
- growth rating (paint 125 ppm, Phase 1 Chall 1, day 1): 5
- growth rating (paint 125 ppm, Phase 1 Chall 1, day 3): 2
- growth rating (paint 125 ppm, Phase 1 Chall 1, day 7): 0
- growth rating (paint 125 ppm, Phase 1 Chall 2, day 1): 5
- growth rating (paint 125 ppm, Phase 1 Chall 2, day 3): 4
- growth rating (paint 125 ppm, Phase 1 Chall 2, day 7): 0
- growth rating (paint 125 ppm, Phase 1 Chall 3, day 1): 5
- growth rating (paint 125 ppm, Phase 1 Chall 3, day 3): 4
- growth rating (paint 125 ppm, Phase 1 Chall 3, day 7): 0
- growth rating (paint 250 ppm, Phase 1 Chall 1, day 1): 5
- growth rating (paint 250 ppm, Phase 1 Chall 1, day 3): 1
- growth rating (paint 250 ppm, Phase 1 Chall 1, day 7): 0
- growth rating (paint 250 ppm, Phase 1 Chall 2, day 1): 4
- growth rating (paint 250 ppm, Phase 1 Chall 2, day 3): 4
- growth rating (paint 250 ppm, Phase 1 Chall 2, day 7): 0
- growth rating (paint 250 ppm, Phase 1 Chall 3, day 1): 5
- growth rating (paint 250 ppm, Phase 1 Chall 3, day 3): 4
- growth rating (paint 250 ppm, Phase 1 Chall 3, day 7): 0
- growth rating (paint 500 ppm, Phase 1 Chall 1, day 1): 5
- growth rating (paint 500 ppm, Phase 1 Chall 1, day 3): 1
- growth rating (paint 500 ppm, Phase 1 Chall 1, day 7): 0
- growth rating (paint 500 ppm, Phase 1 Chall 2, day 1): 4
- growth rating (paint 500 ppm, Phase 1 Chall 2, day 3): 3
- growth rating (paint 500 ppm, Phase 1 Chall 2, day 7): 0
- growth rating (paint 500 ppm, Phase 1 Chall 3, day 1): 5
- growth rating (paint 500 ppm, Phase 1 Chall 3, day 3): 3
- growth rating (paint 500 ppm, Phase 1 Chall 3, day 7): 0
- growth rating (paint 750 ppm, Phase 1 Chall 1, day 1): 4
- growth rating (paint 750 ppm, Phase 1 Chall 1, day 3): 1
- growth rating (paint 750 ppm, Phase 1 Chall 1, day 7): 0
- growth rating (paint 750 ppm, Phase 1 Chall 2, day 1): 4
- growth rating (paint 750 ppm, Phase 1 Chall 2, day 3): 3
- growth rating (paint 750 ppm, Phase 1 Chall 2, day 7): 0
- growth rating (paint 750 ppm, Phase 1 Chall 3, day 1): 4
- growth rating (paint 750 ppm, Phase 1 Chall 3, day 3): 4
- growth rating (paint 750 ppm, Phase 1 Chall 3, day 7): 0
